# Results taken from US20250073194A1, “RXR AGONISTS IN EYE DISORDERS” (Baylor College of Medicine, priority 2022, published 2025).
# Test system: monocytes
# Assay: ATAC seq of LPS-stimulated cultured monocytes (transcription factor binding motifs)
# Type: cell-based, mouse
# [1] = 9-cis RA+LPS compared to LPS treatment alone, 100 nM
structure (smiles),measurement,setting,value
"CC1=C(/C=C/C(C)=C\C=C\C(C)=C\C(=O)O)C(C)(C)CCC1 [9-cis RA, 9-cis retinoic acid]","number of known transcription factor motifs increased, including RAR:RXR",[1],5
same,"number of transcription factor motifs decreased, including AP-1",[1],4
same,number of open AP-1 transcription factor binding motifs,"monocytes, ATAC seq",decreases
